No constants are given. Whether binding was seen depends on the method and setting. Binding seen in cells or lysates may run through a third protein. A yes stands for co-enrichment or nearness to the bait. Other partners may have been found. Where a sequence is shown, tags or fusion partners need not be part of it.
T1: EGFP–ARS2 wt (human) (UniProt Q9BXP5)
T1 sequence: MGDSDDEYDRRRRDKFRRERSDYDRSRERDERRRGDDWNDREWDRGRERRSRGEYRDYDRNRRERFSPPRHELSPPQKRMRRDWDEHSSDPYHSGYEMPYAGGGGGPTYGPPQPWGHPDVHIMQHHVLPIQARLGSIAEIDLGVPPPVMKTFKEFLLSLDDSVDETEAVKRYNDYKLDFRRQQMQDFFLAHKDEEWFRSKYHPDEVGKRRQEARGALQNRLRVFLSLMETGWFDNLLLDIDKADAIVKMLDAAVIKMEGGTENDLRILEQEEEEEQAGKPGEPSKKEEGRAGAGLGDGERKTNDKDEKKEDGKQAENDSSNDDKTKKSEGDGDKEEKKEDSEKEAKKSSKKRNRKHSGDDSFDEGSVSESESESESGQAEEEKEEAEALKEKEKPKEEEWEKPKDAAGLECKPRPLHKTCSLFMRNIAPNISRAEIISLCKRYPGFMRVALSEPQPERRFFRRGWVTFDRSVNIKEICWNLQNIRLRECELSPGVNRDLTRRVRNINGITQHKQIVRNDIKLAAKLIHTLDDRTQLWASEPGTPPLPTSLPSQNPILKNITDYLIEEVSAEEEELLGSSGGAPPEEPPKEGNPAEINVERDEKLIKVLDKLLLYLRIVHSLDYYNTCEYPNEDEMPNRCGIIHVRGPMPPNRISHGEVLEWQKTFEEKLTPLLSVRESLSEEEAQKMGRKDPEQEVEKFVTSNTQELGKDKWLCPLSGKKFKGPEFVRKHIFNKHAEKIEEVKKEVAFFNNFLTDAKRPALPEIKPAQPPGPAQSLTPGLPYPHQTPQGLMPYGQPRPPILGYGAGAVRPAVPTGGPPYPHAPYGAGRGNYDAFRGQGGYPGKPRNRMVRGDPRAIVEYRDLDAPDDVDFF

B1: CPSF1 (protein, UniProt Q10570 1-1443)
chain: MYAVYKQAHPPTGLEFSMYCNFFNNSERNLVVAGTSQLYVYRLNRDAEALTKNDRSTEGKAHREKLELAASFSFFGNVMSMASVQLAGAKRDALLLSFKDAKLSVVEYDPGTHDLKTLSLHYFEEPELRDGFVQNVHTPRVRVDPDGRCAAMLVYGTRLVVLPFRRESLAEEHEGLVGEGQRSSFLPSYIIDVRALDEKLLNIIDLQFLHGYYEPTLLILFEPNQTWPGRVAVRQDTCSIVAISLNITQKVHPVIWSLTSLPFDCTQALAVPKPIGGVVVFAVNSLLYLNQSVPPYGVALNSLTTGTTAFPLRTQEGVRITLDCAQATFISYDKMVISLKGGEIYVLTLITDGMRSVRAFHFDKAAASVLTTSMVTMEPGYLFLGSRLGNSLLLKYTEKLQEPPASAVREAADKEEPPSKKKRVDATAGWSAAGKSVPQDEVDEIEVYGSEAQSGTQLATYSFEVCDSILNIGPCANAAVGEPAFLSEEFQNSPEPDLEIVVCSGHGKNGALSVLQKSIRPQVVTTFELPGCYDMWTVIAPVRKEEEDNPKGEGTEQEPSTTPEADDDGRRHGFLILSREDSTMILQTGQEIMELDTSGFATQGPTVFAGNIGDNRYIVQVSPLGIRLLEGVNQLHFIPVDLGAPIVQCAVADPYVVIMSAEGHVTMFLLKSDSYGGRHHRLALHKPPLHHQSKVITLCLYRDLSGMFTTESRLGGARDELGGRSGPEAEGLGSETSPTVDDEEEMLYGDSGSLFSPSKEEARRSSQPPADRDPAPFRAEPTHWCLLVRENGTMEIYQLPDWRLVFLVKNFPVGQRVLVDSSFGQPTTQGEARREEATRQGELPLVKEVLLVALGSRQSRPYLLVHVDQELLIYEAFPHDSQLGQGNLKVRFKKVPHNINFREKKPKPSKKKAEGGGAEEGAGARGRVARFRYFEDIYGYSGVFICGPSPHWLLVTGRGALRLHPMAIDGPVDSFAPFHNVNCPRGFLYFNRQGELRISVLPAYLSYDAPWPVRKIPLRCTAHYVAYHVESKVYAVATSTNTPCARIPRMTGEEKEFETIERDERYIHPQQEAFSIQLISPVSWEAIPNARIELQEWEHVTCMKTVSLRSEETVSGLKGYVAAGTCLMQGEEVTCRGRILIMDVIEVVPEPGQPLTKNKFKVLYEKEQKGPVTALCHCNGHLVSAIGQKIFLWSLRASELTGMAFIDTQLYIHQMISVKNFILAADVMKSISLLRYQEESKTLSLVSRDAKPLEVYSVDFMVDNAQLGFLVSDRDRNLMVYMYLPEAKESFGGMRLLRRADFHVGAHVNTFWRTPCRGATEGLSKKSVVWENKHITWFATLDGGIGLLLPMQEKTYRRLLMLQNALTTMLPHHAGLNPRAFRMLHVDRRTLQNAVRNVLDGELLNRYLYLSTMERSELAKKIGTTPDIILDDLLETDRVTAHF
B2: TRA2A (protein, UniProt Q13595 1-282)
chain: MSDVEENNFEGRESRSQSKSPTGTPARVKSESRSGSRSPSRVSKHSESHSRSRSKSRSRSRRHSHRRYTRSRSHSHSHRRRSRSRSYTPEYRRRRSRSHSPMSNRRRHTGSRANPDPNTCLGVFGLSLYTTERDLREVFSRYGPLSGVNVVYDQRTGRSRGFAFVYFERIDDSKEAMERANGMELDGRRIRVDYSITKRAHTPTPGIYMGRPTHSGGGGGGGGGGGGGGGGRRRDSYYDRGYDRGYDRYEDYDYRYRRRSPSPYYSRYRSRSRSRSYSPRRY
B3: TRA2B (protein, UniProt P62995 1-288)
chain: MSDSGEQNYGERESRSASRSGSAHGSGKSARHTPARSRSKEDSRRSRSKSRSRSESRSRSRRSSRRHYTRSRSRSRSHRRSRSRSYSRDYRRRHSHSHSPMSTRRRHVGNRANPDPNCCLGVFGLSLYTTERDLREVFSKYGPIADVSIVYDQQSRRSRGFAFVYFENVDDAKEAKERANGMELDGRRIRVDFSITKRPHTPTPGIYMGRPTYGSSRRRDYYDRGYDRGYDDRDYYSRSYRGGGGGGGGWRAAQDRDQIYRRRSPSPYYSRGGYRSRSRSRSYSPRRY

Biological target: T1, EGFP–ARS2 wt (human)
Test: affinity purification with mass spectrometry; EGFP-tagged ARS2 constructs expressed in HEK 293T/17, lysis in 20 mM HEPES pH 7.4, 120 mM NaCl, 0.1% Triton X-100 with RNase H, GFP-Trap beads, TMT labelling, LC–MS/MS; controls EGFP and pcDNA3.1

Row | binding | Binder
1 | binds | B1
2 | binds | B2
3 | binds | B3

Source: article PMC5923425, “Structural analysis of human ARS2 as a platform for co-transcriptional RNA sorting” (Nature Communications, 2018)
